Taken from: PubChem BioAssay AID1224828 (NIAID, 2016)

- Assay: 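Knock-downs that increase or decrease LPS-induced p65 nuclear translocation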 (primary screen)
- System: mouse RAW264.7 G9 macrophage reporter cells (GFP-p65, Tnf promoter-mCherry)
- Reagents: siRNA pool against mouse genes, 100 nM
- Time to read-out: 2 days siRNA transfection, then 40 min LPS before fixation
- Treatment: LPS (Salmonella minnesota R595) at 10 ng/ml
- Measurement: 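Microscopy ratio of nuclear to perinuclear-ring GFP-p65 signal, scaled to the plate median; gene score is the average of two replicate robust z-scores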
- Direction: p65 translocation robust z-score: higher = more nuclear NF-kappaB p65 after LPS than the plate median; nuclear/cytoplasmic p65 ratio: higher = more nuclear NF-kappaB p65
- Rule for the call: 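Active if robust z is above 3.3 (negative regulators) or below -1.56, the Tlr4 control median (positive regulators); activity score 50 or more; control wells not called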
- Meaning of the calls: active = hit (p65 shift raised or lowered); inactive = no clear change
In all, the deposit lists about 17,000 reagents; below is a random part of them. 762 of all reagents (4.5%) count as active. 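Active calls include both raised and lowered p65 entry, mostly lowered; wells with fewer than 50 cells lack a z-score.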 The raw values are shown without normalisation. Unmarked entries are inactive.

Gene	p65 translocation robust z-score	nuclear/cytoplasmic p65 ratio, rep 1	nuclear/cytoplasmic p65 ratio, rep 2	low cell count flag
Itch	-0.01	1.37	1.47	enough cells to score
Hspb1	1.53	1.51	1.69	enough cells to score
Serf1	-0.56	1.3	1.22	enough cells to score
Wfdc5	-0.44	1.48	1.81	enough cells to score
Mfsd6l	-0.53	1.53	1.72	enough cells to score
Klhl13	-1.4	1.34	1.12	enough cells to score
Spata21		1.09	1.3	fewer than 50 cells per well; well left out of scoring
Scx		1.65	1.36	fewer than 50 cells per well; well left out of scoring
Deaf1	-1.47	1.37	1.32	enough cells to score
Anapc15	1.3	1.41	1.43	enough cells to score
Atp1a3	-1.78 (active)	1.26	1.34	enough cells to score
Cdca4	-0.45	1.55	1.32	enough cells to score
Mrtfa	-0.89	1.27	1.28	enough cells to score
Crkl	0.16	1.73	1.41	enough cells to score
Ung	0.59	1.58	1.6	enough cells to score
Skil	-0.07	1.49	1.59	enough cells to score
Nfu1	2.01	1.99	1.79	enough cells to score
Ranbp17	0.82	1.48	1.31	enough cells to score
St8sia3		1.61	1.25	fewer than 50 cells per well; well left out of scoring
Sod3	1.67	1.64	1.95	enough cells to score
Or13a20	0.68	1.91	1.68	enough cells to score
Agfg1	-0.01	1.45	1.36	enough cells to score
Atp2c1	-0.4	1.59	1.52	enough cells to score
AW209491	0.71	1.59	1.73	enough cells to score
Rbmx2		1.98	1.35	fewer than 50 cells per well; well left out of scoring
Moap1	-1.56	1.22	1.16	enough cells to score
Zc3hav1		1.4	1.15	fewer than 50 cells per well; well left out of scoring
Trim21	0.21	1.63	1.45	enough cells to score
Frmd8		1.63	1.24	fewer than 50 cells per well; well left out of scoring
Slc39a6		1.41	1.5	fewer than 50 cells per well; well left out of scoring
Chil3	0.19	1.63	1.98	enough cells to score
Tcf15	-0.69	1.43	1.41	enough cells to score
Spaca1		1.4	1.58	fewer than 50 cells per well; well left out of scoring
Abca5	0.13	1.56	1.77	enough cells to score
Upk3a		1.11	1.01	fewer than 50 cells per well; well left out of scoring
Upk1b		1.51	1.44	fewer than 50 cells per well; well left out of scoring
Crabp1	-0.39	1.52	1.72	enough cells to score
1700123O20Rik	0.95	1.26	1.54	enough cells to score
Pvalb	-0.14	1.22	1.2	enough cells to score
Junb	1.54	1.5	1.57	enough cells to score
Or14c39		1.11	1.38	fewer than 50 cells per well; well left out of scoring
Foxq1	0.72	1.66	1.59	enough cells to score
Or52n2	-0.15	1.39	1.25	enough cells to score
Capzb	0	1.59	1.64	enough cells to score
Gfi1b	-1.8 (active)	1.15	1.16	enough cells to score
Cfap263		1.22	1.17	fewer than 50 cells per well; well left out of scoring
Riok2	0.25	1.5	1.6	enough cells to score
Btg2	-0.02	1.65	1.57	enough cells to score
Nr2e1	-0.48	1.46	1.28	enough cells to score
B3gnt9	-0.02	1.58	1.79	enough cells to score
Runx1	-1.42	1.15	1.06	enough cells to score
Mif	1.29	1.52	1.59	enough cells to score
Csgalnact2	1.97	1.82	1.79	enough cells to score
Cd207	-0.59	1.35	1.68	enough cells to score
Or12e10	0.43	1.83	1.55	enough cells to score
Pif1	1.67	1.73	2.08	enough cells to score
Nol3	-0.3	1.43	1.35	enough cells to score
Plekha3	-0.2	1.33	1.21	enough cells to score
Krt86	0.48	1.54	1.44	enough cells to score
